Measurements taken from PubChem BioAssay AID493014 (National Center for Advancing Translational Sciences (NCATS), 2011).
The campaign covered roughly 340,000 compounds. About 170 (0.05%) were called active. Inconclusive means that the source gave no clear call. Such entries were picked first, then a sample of the others. The call rests on the fitted dose curve; in most records, active means well fitted inhibition curve with a large enough effect in the signal ratio, with a control signal flat (not every such curve was filed as active); inconclusive means small, poorly fitted or top-dose-only effect, or effect the other way, or a change in a side signal; inactive means flat fitted curve, though single readings scatter; the % refers to the signal ratio. Where the call is inconclusive, the potency comes from a doubtful curve fit.
Potency means the concentration at half of the fitted maximal effect.

Test: qHTS Assay to Find Inhibitors of Chronic Active B-Cell Receptor Signaling;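 on activity change, negative = inhibition: plate controls were basal doxycycline-induced cells for no effect and cells given 10 µM MG132 for full effect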
Details: ABC-DLBCL IkBa-CBG/CBR reporter, luminescence ratio (green luciferase fused to IkBa over red control in TMD8 lymphoma cells), 4 h; activity change, negative = inhibition: at 46.1 µM (top of the series) unless noted
Outline: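 Cell line TMD8 (human ABC DLBCL), stably expressing tet-inducible CBG68-IkBa fusion and CBR; IMDM/0.5% FBS; cpd up to 46 uM; dox induction, 4 h, 37C/5% CO2; dual luminescence; green/red ratio; MG132 control.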
For `CC(C)(C)c1ccc(/C=N/N2CCN(c3ccccn3)CC2)cc1`, the activity change, negative = inhibition was inconclusive: 22.1%. With `O=C(c1ccc(Cl)cc1)c1ccc(OCC(O)CN2CCCCC2)cc1` (stereo unspecified) the activity change, negative = inhibition was inconclusive: 28.1%. For `CN1c2ccsc2/C(=N/NC(=O)c2c(F)cccc2F)CS1(=O)=O`, the activity change, negative = inhibition was “inactive”. With `c1ccc2c(Nc3ccc4c(c3)OCCO4)c3c(nc2c1)CCC3` the activity change, negative = inhibition was inconclusive: -11.3%. For `CSCCC(NC(=O)c1ccco1)C(=O)NC1CCC(C)CC1` (stereo unspecified), the activity change, negative = inhibition was “inactive”. In the case of `COc1cc(/C=N/N2C(=O)C3C4c5ccccc5C(c5ccccc54)C3C2=O)ccc1O` (stereo unspecified), the activity change, negative = inhibition is reported as inconclusive: 13.7%. With `CCCCNC(=O)c1cc(-c2ccc(OC)cc2)on1` the Potency was inconclusive: 7.31 µM [falling, partial curve]. For `CC1CCCCC1NC(=O)c1cc2ccccc2o1` (stereo unspecified), the Potency was inconclusive: 16.4 µM [falling, partial curve, poor fit]. For `Cc1[nH]c(C(=O)O)c(C)c1C(=O)OC(C)C`, the activity change, negative = inhibition was “inactive”. With `C=CCC[C@@H](Cc1ccc(F)cc1)C(=O)OC[C@H](Cc1c[nH]c2ccccc12)NC(=O)[C@@H](CC=C)CC(=O)N[C@H](CO)Cc1ccccc1` the activity change, negative = inhibition was “inactive”. With `O=C(COc1ccc(Cl)cc1)NCc1nnc(SCC(=O)Nc2ccccc2F)o1` the Potency was inconclusive: 1.58 µM [falling, partial curve, poor fit]. In the case of `O=C(Nc1ccc(NC(=O)c2cc3ccccc3o2)cc1)c1ccc2c(c1)OCCO2`, the activity change, negative = inhibition is reported as “inactive”. With `C=CCn1c(SCC(=O)NNC(=O)Nc2cccc(Cl)c2)nnc1-c1ccccc1` the activity change, negative = inhibition was inconclusive: 4%. For `CC(OC(=O)c1cc[n+]([O-])cc1)C(=O)Nc1ccc(Cl)cn1` (stereo unspecified), the activity change, negative = inhibition was inconclusive: 0.333%. With `O=C(c1ccccc1)N1CCCC(c2ccc(Cl)cc2)=N1` the Potency was inconclusive: 0.794 µM [falling, full curve, poor fit]. With `O=C(Nc1ccc(OCc2ccccc2)cc1)Nc1ccccc1C(=O)NCCCN1CCOCC1` the Potency was inconclusive: 2.82 µM [falling, partial curve]. For `O=C(O)c1cccnc1Sc1ccc(Cl)cc1`, the activity change, negative = inhibition was “inactive”. In the case of `O=C(NCc1ccccn1)C(=O)N/N=C/c1ccccc1O`, the activity change, negative = inhibition is reported as “inactive”. In the case of `CC1(C)NC(=O)N(c2ccccc2Cl)C1(C)NO` (stereo unspecified), the activity change, negative = inhibition is reported as inconclusive: -7.96%. In the case of `CCN(CC)C(=O)c1[nH]cnc1C(=O)Nc1ccc(OC)cc1`, the activity change, negative = inhibition is reported as inconclusive: 0.683%. With `O=[N+]([O-])c1ccc(-c2nc(Nc3ccc(O)cc3)c3ccccc3n2)cc1` the activity change, negative = inhibition was inconclusive: -0.713%. In the case of `CCOC(=O)c1cc(CC)sc1/N=C/C1=C(O)CC(C)(C)CC1=O`, the activity change, negative = inhibition is reported as inconclusive: -4.91%. In the case of `Cc1c(C(=O)O)oc2c1ccc1ccccc12`, the Potency is reported as inconclusive: 0.178 µM [rising, full curve, poor fit]. For `CCn1nc([N+](=O)[O-])c2c(-c3nc4ccccc4o3)c(N)n(CCCOC)c2c1=O`, the activity change, negative = inhibition was inconclusive: 15.7%. In the case of `O=C(CNC(=O)C1COc2ccccc2O1)N/N=C\c1ccc(Cl)cc1` (stereo unspecified), the activity change, negative = inhibition is reported as “inactive”. For `COc1ccccc1N1CCN(S(=O)(=O)c2ccc3c(c2)NC(=O)C(C)S3)CC1` (stereo unspecified), the activity change, negative = inhibition was inconclusive: 7.64%. With `COc1ccc(N2C(=O)[C@@H]3Cc4ccccc4CN3C2=O)cc1` the activity change, negative = inhibition was inconclusive: 1.29%. With `Nc1ccc(C(=O)Nc2ccc3nc(-c4cccnc4)[nH]c3c2)cc1` the activity change, negative = inhibition was inconclusive: 1.08%. In the case of `CC(=O)N1N=C(c2cccc(NS(=O)(=O)c3ccc(C)cc3)c2)CC1c1ccco1` (stereo unspecified), the Potency is reported as inconclusive: 25.1 µM [falling, single point]. With `O=C(NCCN1CCN(Cc2ccccc2Cl)CC1)Nc1ccccc1` the activity change, negative = inhibition was “inactive”. In the case of `CC(CCc1ccc(O)cc1)NCCC(c1ccccc1)c1ccccc1` (stereo unspecified), the activity change, negative = inhibition is reported as inconclusive: 0.378%. With `O=C(CC(=O)Nc1ccc(Br)cc1)Nc1ccc(Br)cc1` the activity change, negative = inhibition was “inactive”. For `O=C1CN(C(=O)/C=C/c2ccco2)c2ccccc2N1`, the activity change, negative = inhibition was inconclusive: 0.216%. In the case of `CCCN(CC1CC1)c1nc(N)c2c(N)nc(OC)cc2c1C#N`, the Potency is reported as inconclusive: 2.91 µM [rising, partial curve, poor fit]. In the case of `O=C(CCn1c(=O)sc2ccccc21)Nc1cccnc1`, the activity change, negative = inhibition is reported as inconclusive: 8.63%. With `O=C(CSc1n[nH]c(-c2ccncc2)n1)Nc1ccccc1Cl` the activity change, negative = inhibition was “inactive”. For `C[C@@]12C(=O)N(c3ccc(Br)cc3)C(=O)N1[C@@H]1c3ccccc3OC[C@@H]1[C@H]2c1ccccc1`, the activity change, negative = inhibition was inconclusive: -0.325%. For `COc1ccc(NC2CCCN(C(=O)CCN3CCCC3=O)C2)cc1` (stereo unspecified), the activity change, negative = inhibition was “inactive”. In the case of `c1ccc(-c2nc3nonc3c3nc4ccccc4n23)cc1`, the activity change, negative = inhibition is reported as inconclusive: -1.77%. In the case of `COc1ccc(-c2cc3nc(C)c(CCC(=O)NC(C)CCc4ccco4)c(C)n3n2)c(OC)c1` (stereo unspecified), the Potency is reported as inconclusive: 20.6 µM [falling, partial curve]. For `Cc1ccc(CNC(=S)Nc2cc(C(=O)O)ccc2C)cc1`, the activity change, negative = inhibition was “inactive”. With `Cc1ccc(NC2=C(Cl)C(=O)OC2OC(=O)c2ccccc2C)cc1` (stereo unspecified) the Potency was inconclusive: 12.6 µM [falling, partial curve, poor fit]. In the case of `COC(c1ccccc1)c1nnc(CCC(=O)N(C)Cc2cccc(-n3cccn3)c2)o1` (stereo unspecified), the activity change, negative = inhibition is reported as “inactive”. For `O=C(O)c1ccc(N=Nc2c(O)ccc3ncccc23)cc1`, the Potency was inconclusive: 10 µM [falling, partial curve]. In the case of `COc1ccc(OC)c(CCNC(=O)c2ccc3c(c2)N(Cc2ccc(F)cc2)CCS3)c1`, the activity change, negative = inhibition is reported as “inactive”. For `O=C(COc1ccc(Cl)cc1Cl)N1CCCCCC1`, the activity change, negative = inhibition was inconclusive: 6.38%. With `FC(F)(F)c1cc(CCN2CCNC[C@H]2Cc2cccc3ccccc23)cc(C(F)(F)F)c1` the activity change, negative = inhibition was “inactive”. With `Cc1nc2ccccc2cc1C(=O)N/N=C/c1ccc([N+](=O)[O-])cc1` the activity change, negative = inhibition was inconclusive: -0.449%. In the case of `CCC1=C(OC(=O)N(CC)CC)N2C(=O)OC(=NCCc3c[nH]c4ccccc34)[C@]2(Cc2ccccc2)[C@H]2C1=CC[C@H]1C(=O)N(C)C(=O)[C@H]12`, the activity change, negative = inhibition is reported as inconclusive: 4.56%. In the case of `C=C(C)C(=O)N1CC2(CC(c3cccc(NC(=O)/C=C\C=C/C)c3)=NO2)C[C@H]1C(N)=O` (stereo partly specified), the activity change, negative = inhibition is reported as inconclusive: -18.7%. In the case of `CCN(C(=O)CN1C(=O)c2ccc([N+](=O)[O-])cc2C1=O)C1CCCCC1`, the activity change, negative = inhibition is reported as inconclusive: 7.76%.
